The assay concerns the target T1, Myc-DUSP4 (UniProt Q13115).
T1 sequence: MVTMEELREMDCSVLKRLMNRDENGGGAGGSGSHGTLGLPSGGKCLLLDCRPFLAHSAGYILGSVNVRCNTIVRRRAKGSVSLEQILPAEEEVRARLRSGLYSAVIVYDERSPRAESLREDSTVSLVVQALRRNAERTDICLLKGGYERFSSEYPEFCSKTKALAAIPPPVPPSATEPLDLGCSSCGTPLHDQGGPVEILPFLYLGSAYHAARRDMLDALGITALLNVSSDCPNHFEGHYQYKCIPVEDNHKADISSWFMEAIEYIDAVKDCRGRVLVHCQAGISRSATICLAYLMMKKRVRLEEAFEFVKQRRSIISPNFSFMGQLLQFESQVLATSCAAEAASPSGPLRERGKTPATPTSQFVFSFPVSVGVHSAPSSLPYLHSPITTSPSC
The assay is described as follows: co-IP; lysates of HEK293T cells transfected with ectopic Flag-DOCK1 and Myc-DUSP4; precipitating antibody and buffer not told.

These are yes or no findings as the source states them, for the method shown. Binding seen in cells or lysates may run through a third protein. Some entries that bind do so weakly or less than the wild type. Where a sequence is shown, tags or fusion partners need not be part of it.

For the substance “Flag-DOCK1 (dedicator of cytokinesis 1) (from UniProt Q14185 1-1865)”, the binding result is “binds”.
